Source: paper PMC12374634
Results are given in words; binding and its absence hold for the method and conditions named. Binding seen in cells or lysates may run through a third protein. Some entries that bind do so weakly or less than the wild type. For some of these results: Tags and fused reporters may be left off the sequences shown. Values belong to the binder of their own block, whether it stands above or below them.

Legend:
[1] = molecular target: T1, activin receptor-like kinase 1 (ALK1), endogenous (mouse (endogenous in neonatal mouse cardiac fibroblasts)) (UniProt Q61288); assay: co-IP; endogenous proteins in lysate of senescent (D-gal-treated) mouse cardiac fibroblasts; IP with antibody to the receptor (or IgG), protein A/G magnetic beads, 4 °C overnight, washes with PBS with 0.5% Tween-20; immunoblot for FBLN7
T1 sequence: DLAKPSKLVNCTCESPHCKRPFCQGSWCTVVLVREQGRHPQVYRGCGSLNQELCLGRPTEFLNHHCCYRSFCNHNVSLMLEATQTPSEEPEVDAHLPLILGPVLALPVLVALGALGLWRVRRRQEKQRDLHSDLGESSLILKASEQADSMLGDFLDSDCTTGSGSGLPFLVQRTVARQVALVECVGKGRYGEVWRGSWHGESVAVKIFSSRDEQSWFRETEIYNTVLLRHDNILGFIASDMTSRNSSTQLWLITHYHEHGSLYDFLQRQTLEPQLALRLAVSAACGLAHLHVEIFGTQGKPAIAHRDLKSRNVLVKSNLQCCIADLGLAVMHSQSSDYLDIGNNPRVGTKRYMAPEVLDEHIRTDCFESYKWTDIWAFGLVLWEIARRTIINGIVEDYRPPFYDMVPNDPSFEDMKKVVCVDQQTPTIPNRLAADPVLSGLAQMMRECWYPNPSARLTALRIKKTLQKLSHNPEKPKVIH

[2] = molecular target: T2, TGF-β type III receptor (TGFBR3), endogenous (mouse (endogenous in neonatal mouse cardiac fibroblasts)) (UniProt O88393); assay: as above
T2 sequence: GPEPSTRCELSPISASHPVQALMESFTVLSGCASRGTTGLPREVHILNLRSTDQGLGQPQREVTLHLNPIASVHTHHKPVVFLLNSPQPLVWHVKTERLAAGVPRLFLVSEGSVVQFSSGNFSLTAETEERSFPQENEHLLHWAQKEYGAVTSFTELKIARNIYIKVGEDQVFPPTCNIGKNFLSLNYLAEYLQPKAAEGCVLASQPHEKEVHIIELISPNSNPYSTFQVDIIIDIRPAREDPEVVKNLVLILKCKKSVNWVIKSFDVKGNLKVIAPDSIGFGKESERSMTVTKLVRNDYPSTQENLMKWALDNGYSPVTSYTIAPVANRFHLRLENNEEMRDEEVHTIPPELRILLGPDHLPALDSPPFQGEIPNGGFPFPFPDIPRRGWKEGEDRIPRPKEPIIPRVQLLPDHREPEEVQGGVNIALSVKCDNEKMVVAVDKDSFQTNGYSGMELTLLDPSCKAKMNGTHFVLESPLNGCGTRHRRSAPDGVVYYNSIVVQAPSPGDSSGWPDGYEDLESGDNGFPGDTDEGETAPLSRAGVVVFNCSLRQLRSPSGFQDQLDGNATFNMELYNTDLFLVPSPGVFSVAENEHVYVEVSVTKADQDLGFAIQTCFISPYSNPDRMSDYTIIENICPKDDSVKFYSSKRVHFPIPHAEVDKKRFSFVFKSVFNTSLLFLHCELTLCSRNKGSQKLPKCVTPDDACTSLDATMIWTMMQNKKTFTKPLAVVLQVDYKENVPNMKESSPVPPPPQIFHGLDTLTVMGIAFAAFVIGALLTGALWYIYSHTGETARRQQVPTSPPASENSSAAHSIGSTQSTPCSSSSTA

[3] = molecular target: T3, Flag-TGFBR3 (mouse) (UniProt O88393); assay: co-IP; 293T cells co-transfected with Flag-TGFBR3 and GFP-FBLN7, lysed 24 h after transfection in nondenaturing lysis buffer; reciprocal IP with GFP-tag or Flag-tag antibody, protein A/G magnetic beads, 4 °C overnight; immunoblot for the other tag
T3 sequence: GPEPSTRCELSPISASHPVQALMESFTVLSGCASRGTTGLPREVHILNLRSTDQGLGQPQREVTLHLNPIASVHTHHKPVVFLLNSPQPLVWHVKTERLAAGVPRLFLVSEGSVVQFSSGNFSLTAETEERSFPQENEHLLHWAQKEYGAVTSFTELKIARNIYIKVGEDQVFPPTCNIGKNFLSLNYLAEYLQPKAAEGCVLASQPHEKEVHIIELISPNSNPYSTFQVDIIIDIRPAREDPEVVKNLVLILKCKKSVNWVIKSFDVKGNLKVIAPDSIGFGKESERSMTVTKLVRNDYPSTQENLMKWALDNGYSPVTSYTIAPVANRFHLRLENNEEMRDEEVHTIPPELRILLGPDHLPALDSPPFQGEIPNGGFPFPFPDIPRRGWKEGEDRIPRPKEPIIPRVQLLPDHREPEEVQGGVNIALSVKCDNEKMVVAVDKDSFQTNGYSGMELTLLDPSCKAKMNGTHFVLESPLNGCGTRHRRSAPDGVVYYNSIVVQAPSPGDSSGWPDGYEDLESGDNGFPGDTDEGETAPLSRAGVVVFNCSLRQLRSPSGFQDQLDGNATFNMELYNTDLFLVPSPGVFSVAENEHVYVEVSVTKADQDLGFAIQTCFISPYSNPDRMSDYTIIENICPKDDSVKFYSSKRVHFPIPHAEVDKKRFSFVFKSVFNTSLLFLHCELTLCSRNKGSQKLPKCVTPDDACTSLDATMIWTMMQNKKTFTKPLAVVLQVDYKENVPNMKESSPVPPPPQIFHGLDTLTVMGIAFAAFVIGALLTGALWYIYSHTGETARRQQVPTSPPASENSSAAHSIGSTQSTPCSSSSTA

[4] = molecular target: T4, GFP-FBLN7 (mouse) (UniProt Q501P1); assay: as above
T4 sequence: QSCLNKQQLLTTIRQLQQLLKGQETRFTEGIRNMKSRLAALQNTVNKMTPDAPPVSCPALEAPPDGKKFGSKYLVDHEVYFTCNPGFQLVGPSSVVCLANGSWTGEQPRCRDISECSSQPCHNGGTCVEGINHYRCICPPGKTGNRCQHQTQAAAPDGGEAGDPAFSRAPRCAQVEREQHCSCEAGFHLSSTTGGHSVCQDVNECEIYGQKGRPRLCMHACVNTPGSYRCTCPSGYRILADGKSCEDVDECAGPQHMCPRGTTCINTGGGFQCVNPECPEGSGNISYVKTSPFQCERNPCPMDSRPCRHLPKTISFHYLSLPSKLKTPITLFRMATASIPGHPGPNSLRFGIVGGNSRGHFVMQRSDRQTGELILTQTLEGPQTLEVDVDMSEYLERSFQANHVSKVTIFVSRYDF

- binding [1]: no binding
- binding [2]: binds
B1: Fibulin 7 (FBLN7), endogenous (protein, UniProt Q501P1 25-440)
chain: QSCLNKQQLLTTIRQLQQLLKGQETRFTEGIRNMKSRLAALQNTVNKMTPDAPPVSCPALEAPPDGKKFGSKYLVDHEVYFTCNPGFQLVGPSSVVCLANGSWTGEQPRCRDISECSSQPCHNGGTCVEGINHYRCICPPGKTGNRCQHQTQAAAPDGGEAGDPAFSRAPRCAQVEREQHCSCEAGFHLSSTTGGHSVCQDVNECEIYGQKGRPRLCMHACVNTPGSYRCTCPSGYRILADGKSCEDVDECAGPQHMCPRGTTCINTGGGFQCVNPECPEGSGNISYVKTSPFQCERNPCPMDSRPCRHLPKTISFHYLSLPSKLKTPITLFRMATASIPGHPGPNSLRFGIVGGNSRGHFVMQRSDRQTGELILTQTLEGPQTLEVDVDMSEYLERSFQANHVSKVTIFVSRYDF

- binding [3]: binds
B2: GFP-FBLN7 (protein, UniProt Q501P1 25-440)
chain: QSCLNKQQLLTTIRQLQQLLKGQETRFTEGIRNMKSRLAALQNTVNKMTPDAPPVSCPALEAPPDGKKFGSKYLVDHEVYFTCNPGFQLVGPSSVVCLANGSWTGEQPRCRDISECSSQPCHNGGTCVEGINHYRCICPPGKTGNRCQHQTQAAAPDGGEAGDPAFSRAPRCAQVEREQHCSCEAGFHLSSTTGGHSVCQDVNECEIYGQKGRPRLCMHACVNTPGSYRCTCPSGYRILADGKSCEDVDECAGPQHMCPRGTTCINTGGGFQCVNPECPEGSGNISYVKTSPFQCERNPCPMDSRPCRHLPKTISFHYLSLPSKLKTPITLFRMATASIPGHPGPNSLRFGIVGGNSRGHFVMQRSDRQTGELILTQTLEGPQTLEVDVDMSEYLERSFQANHVSKVTIFVSRYDF

- binding [4]: binds
B3: Flag-TGFBR3 (receptor, UniProt O88393 23-850)
chain: GPEPSTRCELSPISASHPVQALMESFTVLSGCASRGTTGLPREVHILNLRSTDQGLGQPQREVTLHLNPIASVHTHHKPVVFLLNSPQPLVWHVKTERLAAGVPRLFLVSEGSVVQFSSGNFSLTAETEERSFPQENEHLLHWAQKEYGAVTSFTELKIARNIYIKVGEDQVFPPTCNIGKNFLSLNYLAEYLQPKAAEGCVLASQPHEKEVHIIELISPNSNPYSTFQVDIIIDIRPAREDPEVVKNLVLILKCKKSVNWVIKSFDVKGNLKVIAPDSIGFGKESERSMTVTKLVRNDYPSTQENLMKWALDNGYSPVTSYTIAPVANRFHLRLENNEEMRDEEVHTIPPELRILLGPDHLPALDSPPFQGEIPNGGFPFPFPDIPRRGWKEGEDRIPRPKEPIIPRVQLLPDHREPEEVQGGVNIALSVKCDNEKMVVAVDKDSFQTNGYSGMELTLLDPSCKAKMNGTHFVLESPLNGCGTRHRRSAPDGVVYYNSIVVQAPSPGDSSGWPDGYEDLESGDNGFPGDTDEGETAPLSRAGVVVFNCSLRQLRSPSGFQDQLDGNATFNMELYNTDLFLVPSPGVFSVAENEHVYVEVSVTKADQDLGFAIQTCFISPYSNPDRMSDYTIIENICPKDDSVKFYSSKRVHFPIPHAEVDKKRFSFVFKSVFNTSLLFLHCELTLCSRNKGSQKLPKCVTPDDACTSLDATMIWTMMQNKKTFTKPLAVVLQVDYKENVPNMKESSPVPPPPQIFHGLDTLTVMGIAFAAFVIGALLTGALWYIYSHTGETARRQQVPTSPPASENSSAAHSIGSTQSTPCSSSSTA
